Screen size: about 300,000 compounds; about 3,700 (1.2%) were called active. Inconclusive means that the source gave no clear call. Such entries were picked first, then a sample of the others. Calls follow the shape of the full dose curve; tested in HEK293 cells. A potency beside an inconclusive call is a rough fit, not a confirmed value.
Assay: qHTS for Inhibitors of binding or entry into cells for Lassa Virus; also: nearly all actives have a fitted effect of over 50% in size
Settings: Lassa virus pseudotype entry inhibition, cell reporter; activity change, negative = inhibition: at 37.9 µM (top of the series) unless noted
% is scaled to controls: 0 for no effect and ±100 for the full control effect; potency is read from the fitted curve at half-maximal effect.

Row | Compound | Potency | activity change, negative = inhibition
1 | CC(=O)Nc1ccc(OCC(O)Cn2c3ccccc3c3ccccc32)c(C)c1 (stereo unspecified) | inconclusive: 29.1 µM [inhibitor, single point] | –
2 | CCN(CC(=O)Nc1ccc(NC(C)=O)cc1)C(=O)Cc1ccc(S(=O)(=O)N2CCOCC2)s1 | – | inactive: 6.27%
3 | CCc1ccc(C(=O)O)cc1 | – | inactive: 11.3%
4 | COC(=O)c1ccc(CSc2ncnc3c2nnn3-c2ccc(F)cc2)o1 | – | inactive: 21.8%
5 | CC1N/C(=C\C(=O)c2ccccc2)N(O)C1(C)C (stereo unspecified) | inconclusive: 1 µM [activator, single point] | –
6 | CC(C(=O)Nc1ccc(F)cc1Cl)N(C)CCOc1ccccc1 (stereo unspecified) | inconclusive: 6.31 µM [inhibitor, partial curve, poor fit] | –
7 | CCN(CC)S(=O)(=O)c1ccc(S(=O)(=O)N(Cc2ccccn2)Cc2ccco2)cc1 | inconclusive: 9.2 µM [inhibitor, partial curve] | –
8 | Cc1cccc(C)c1NC(=O)CN(C)C(=O)c1ccc(-c2cccc(C(F)(F)F)c2)o1 | active: 5.62 µM | –
9 | CC(C)c1ccccc1NC(=O)C1CCCN(C(=O)c2ccc(Cl)cc2)C1 (stereo unspecified) | inconclusive: 6.31 µM [inhibitor, single point] | –
10 | Cc1ccc(OCC(=O)Nc2ccc(OCc3cc(=O)n4c(C)csc4n3)cc2)cc1C | inconclusive: 25.1 µM [activator, single point] | –
11 | O=c1oc2ccccc2cc1-c1cn2cc(Cc3ccc(F)cc3)sc2n1 | inconclusive: 3.16 µM [activator, partial curve, poor fit] | –
12 | COc1ccccc1CC(=O)Nc1ccc(-c2noc(COc3ccc(Br)cc3)n2)cc1 | inconclusive: 14.6 µM [inhibitor, partial curve, poor fit] | –
13 | COc1ccsc1C(=O)Nc1ccc(F)cc1F | – | inactive: 15.9%
14 | COc1cc(C2C(C#N)=C(N)OC3=C2C(=O)CC(C)(C)C3)cc2c1OCO2 (stereo unspecified) | inconclusive: 35.5 µM [inhibitor, single point] | –
15 | Cc1ccc2nc(Cl)c(/C=N/Nc3nc(C)cc(C)n3)c(=O)n2c1 | inconclusive: 25.1 µM [inhibitor, partial curve, poor fit] | –
16 | Cc1ccc(NC(=O)c2ccco2)c(NC(=O)c2ccccc2C)c1 | inconclusive: 6.31 µM [inhibitor, single point] | –
17 | Cc1ccc(/C=C/c2nc3ccccc3s2)s1 | active: 6.31 µM | –
18 | Cc1cccnc1NC(=O)Nc1cccc2ccccc12 | – | inactive: -5.52%
19 | CC1(C)Oc2ccc(NC(=O)c3ccco3)cc2O1 | inconclusive: 12.6 µM [inhibitor, single point] | –
20 | COc1cccc2c1C(=O)c1c(O)c3c(c(O)c1C2=O)CC(O)(C(C)=O)CC3OC1CC(O)C(O)C(C)O1 (stereo unspecified) | inconclusive: 2.51 µM [inhibitor, full curve, poor fit] | –
21 | COCCCNC(=O)c1c(NC(=O)c2ccccc2Cl)n(Cc2ccccc2)c2nc3ccccc3nc12 | – | inactive: -5.23%
22 | NC(=O)c1ccc(SCC(=O)OCC(=O)N2CCCCC2)c([N+](=O)[O-])c1 | – | inactive: -15.5% [at 46.1 µM]
23 | O=C(CSc1nnc(-c2ccncc2)o1)Nc1cccc(F)c1 | inconclusive: 35.5 µM [activator, single point] | –

Row | Compound | Potency | activity change, negative = inhibition
24 | O=C(Nc1ccc(Cl)cc1)Nc1ccc(Br)cn1 | inconclusive: 1.58 µM [activator, partial curve, poor fit] | –
25 | CCn1c2ccccc2c2cc(NC(=O)COC(=O)c3ccccc3F)ccc21 | – | inactive: 11.1%
26 | CC(C)(C)c1cc(NC(=O)CCl)n(-c2ccccc2)n1 | inconclusive: 6.51 µM [inhibitor, partial curve, poor fit] | –
27 | Cc1ccc(C(=O)CSc2nc(C)cc(C)c2C(=O)Nc2cccc(C)c2)cc1 | – | inactive: 29.8% [at 46.1 µM]
28 | CC(=O)Nc1c(C(=O)c2ccc(F)cc2)oc2ccccc12 | – | inactive: -1.47%
29 | c1ccc(N2CCN(c3nnnn3-c3ccccc3)CC2)cc1 | inconclusive: 3.55 µM [inhibitor, single point] | –
30 | Cc1cc(C)c2nc(SC3CCOC3=O)cc(C)c2c1 (stereo unspecified) | – | inactive: -13%
31 | Cc1ccc(C(=O)/C=C/c2ccco2)c(O)c1 | – | inactive: 0.618%
32 | Cc1ccc(OCC(=O)Nc2ccc(N3CCN(C(=O)c4ccc(C)cc4)CC3)cc2)cc1 | – | inactive: 0.91% [at 46.1 µM]
33 | Cc1ccccc1N(CC(=O)NC1CCCC1)C(=O)c1oc(C(C)(C)C)cc1C | inconclusive: 23.1 µM [inhibitor, single point] | –
34 | Fc1ccc(-c2noc(C3CCN(Cc4cccnc4)CC3)n2)cc1 | – | inactive: -0.0055%
35 | CCc1cccc(CC)c1NC(=O)CN(C)S(=O)(=O)c1ccc2c(c1)n(C)c(=O)c(=O)n2C | – | inactive: 13.6% [at 46.1 µM]
36 | COc1cc2nc(C3CCC3)n(NC(=O)c3ccco3)c(=O)c2cc1OC | – | inactive: -0.756% [at 46.1 µM]
37 | Cc1nc(NC(=O)c2ccc3c(c2)OCCO3)ccc1Br | inconclusive: 11.2 µM [inhibitor, single point] | –
38 | Cc1ccc(Oc2ccccc2NC(=O)CSCC(=O)Nc2cc(C)on2)cc1 | inconclusive: 6.31 µM [inhibitor, full curve, poor fit] | –
39 | CC(C)COc1ccc(C(=O)N2CCCCC2CCN2CCOCC2)cc1 (stereo unspecified) | – | inactive: -6.7% [at 46.1 µM]
40 | CC(C)CCN(C(=S)NC(=O)C1CCCCC1)c1c(N)n(Cc2ccccc2)c(=O)[nH]c1=O | inconclusive: 0.631 µM [inhibitor, full curve, poor fit] | –
41 | COCCc1ccc(OCC(O)CNC(C)C)cc1 (stereo unspecified) | inconclusive: 23.1 µM [activator, partial curve, poor fit] | –
42 | CSc1nc2ccccc2n1CC(=O)Nc1ccc(C)c(C)c1 | inconclusive: 20 µM [inhibitor, single point] | –
43 | O=C(NCCC1=CCCCC1)c1ccc(F)c(S(=O)(=O)N2CCOCC2)c1 | – | inactive: -0.102%
44 | CC(C)CN(C(=O)c1ccc(C(F)(F)F)cc1)c1c(N)n(CC(C)C)c(=O)[nH]c1=O | inconclusive: 0.891 µM [inhibitor, single point] | –
45 | CCOC(=O)CN(C(=O)CSc1nnc2c(n1)[nH]c1ccccc12)c1ccccc1 | – | inactive: -22.8%
46 | CCCN(Cc1cc2ccccc2[nH]c1=O)C(=O)c1cccc([N+](=O)[O-])c1 | inconclusive: 3.16 µM [inhibitor, partial curve, poor fit] | –

10 of these compounds in a different format.
Row,Compound,Potency,"activity change, negative = inhibition"
26,CC(C)(C)c1cc(NC(=O)CCl)n(-c2ccccc2)n1,"inconclusive: 6.51 µM [inhibitor, partial curve, poor fit]",–
27,Cc1ccc(C(=O)CSc2nc(C)cc(C)c2C(=O)Nc2cccc(C)c2)cc1,–,inactive: 29.8% [at 46.1 µM]
29,c1ccc(N2CCN(c3nnnn3-c3ccccc3)CC2)cc1,"inconclusive: 3.55 µM [inhibitor, single point]",–
31,Cc1ccc(C(=O)/C=C/c2ccco2)c(O)c1,–,inactive: 0.618%
32,Cc1ccc(OCC(=O)Nc2ccc(N3CCN(C(=O)c4ccc(C)cc4)CC3)cc2)cc1,–,inactive: 0.91% [at 46.1 µM]
34,Fc1ccc(-c2noc(C3CCN(Cc4cccnc4)CC3)n2)cc1,–,inactive: -0.0055%
36,COc1cc2nc(C3CCC3)n(NC(=O)c3ccco3)c(=O)c2cc1OC,–,inactive: -0.756% [at 46.1 µM]
37,Cc1nc(NC(=O)c2ccc3c(c2)OCCO3)ccc1Br,"inconclusive: 11.2 µM [inhibitor, single point]",–
40,CC(C)CCN(C(=S)NC(=O)C1CCCCC1)c1c(N)n(Cc2ccccc2)c(=O)[nH]c1=O,"inconclusive: 0.631 µM [inhibitor, full curve, poor fit]",–
44,CC(C)CN(C(=O)c1ccc(C(F)(F)F)cc1)c1c(N)n(CC(C)C)c(=O)[nH]c1=O,"inconclusive: 0.891 µM [inhibitor, single point]",–

— PubChem BioAssay AID540256 (National Center for Advancing Translational Sciences (NCATS), 2011)
